Out of some 31,000 sequences screened, about 1,400 (4.5%) were called active.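 The calls were made as follows: active = median seed-adjusted z-score above 1 or below -1; inactive = the rest.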 This is one part of the list.
Experiment: Novel Modifiers of Survival Motor Neuron (SMN) Protein: Gene Identification via Genome-wide siRNA Screen;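 also: luminescence tracks full-length SMN protein made from the SMN2 reporter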
Conditions: HEK293T SMN2-luciferase reporter, siRNA knockdown, 72 h; actives lie on both sides
How it was run: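 HEK293T cells stably expressing an SMN2 splicing/cDNA-luciferase reporter were reverse-transfected with a druggable-genome siRNA library and read by luminescence at 72 hours; hits defined by MAD score above 1.0 or below -1.0.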

| Sequence | median seed-adjusted z-score |
| --- | --- |
| GCUGCUGCCUUCAUAUUGATT against EPHB4 | inactive: -0.143 |
| GUGUUUCACUUACCUAUAATT against ING2 | inactive: 0.126 |
| AGUUCCUGAUUGUACGAAUTT against NME6 | inactive: -0.304 |
| CCGGGAACCUGGUUCAGUUTT against PLA2G2E | inactive: -0.37 |
| GCUGGUACCCUGGAGGAAATT against GNRH2 | active: 1.13 |
| GAAUCGGAAUUUAUCAUUATT against CDH9 | inactive: -0.18 |
| CCUCCGUCCUGUUUAGGAATT against LCN2 | inactive: 0.123 |
| UCAUGAGCCUGAUAAGUGATT against PPP2R5D | inactive: 0.848 |
| AGACCAUCCUGAAAGAGCATT against GPRC5C | inactive: 0.498 |
| GCAUCCCUAUCUACAGUUUTT against GPR55 | inactive: -0.114 |
| AGAUGUACCUAUGUCAAGATT against OVOL1 | inactive: -0.0414 |
| GAGGUAUUCUAGUUCCAAUTT against LST-3TM12 | inactive: -0.109 |
| CAGAAAUUAUCGAUAUGUUTT against AKR1C4 | inactive: -0.0323 |
| CUAGAUCGCUUUAAAGUGATT against RCHY1 | inactive: -0.157 |
| CGAAUAUGACCUUCACCAATT against HOMER2 | inactive: 0.522 |
| ACCAUUUCAUGUACCCUGATT against ST3GAL2 | inactive: -0.139 |
| AGAUUAUCAUAUUGGGUGATT against RAB7B | inactive: 0 |
| CCAUGGACACUACCGGUUATT against RELN | inactive: 0.207 |
| CAAUCAAAGCAAAUGUUUUTT against TNRC4 | inactive: 0.801 |
| CAACGACAGUGGUAUUCAATT against DNAJC10 | inactive: 0.0527 |
| CGUCAAUUUGUAUAACUUATT against SLC16A14 | inactive: 0.464 |
| GGAACAAGAGUGCAAGAUUTT against ACOXL | inactive: 0.53 |

Some of the entries above in a different format.
Sequence | median seed-adjusted z-score
GCUGCUGCCUUCAUAUUGATT against EPHB4 | inactive: -0.143
GUGUUUCACUUACCUAUAATT against ING2 | inactive: 0.126
GAAUCGGAAUUUAUCAUUATT against CDH9 | inactive: -0.18
CCUCCGUCCUGUUUAGGAATT against LCN2 | inactive: 0.123
UCAUGAGCCUGAUAAGUGATT against PPP2R5D | inactive: 0.848
ACCAUUUCAUGUACCCUGATT against ST3GAL2 | inactive: -0.139
CAAUCAAAGCAAAUGUUUUTT against TNRC4 | inactive: 0.801

More records.

| Sequence | median seed-adjusted z-score |
| --- | --- |
| GAAUACCGGGUCUUAAUUATT against MOV10 | inactive: 0.0759 |
| GGAAAUUGACCUACUCUUUTT against PCDHGA5 | inactive: 0.163 |
| GCUUGGAUGUAAAACUGAATT against IL24 | inactive: -0.125 |
| CCAGCGGAAUCGAAUGAGATT against EIF3D | inactive: 0.104 |
| CUAUGGGUAUGACUACUUUTT against BPHL | inactive: -0.161 |
| UGCUCAUGCUGGAUCAUCATT against SMARCD2 | inactive: 0.162 |
| GAAAAGUUGGAGAAGAUGATT against GINS2 | inactive: 0.553 |
| GGUGUAUGCUGAGGUGAAATT against EIF2C1 | inactive: 0.215 |
| GGAUGGGAGUGGAGAGUUATT against EGLN2 | inactive: -0.349 |
| GUGUCUCUGAUGAACCACATT against SYT15 | inactive: 0.0164 |
| GGAGUUGCCUGACACUGAATT against PDE4C | inactive: 0.565 |
| CUAAUAGCCUUGGAGAUCATT against RAET1E | inactive: -0.616 |
| CGUGGGCUUUGGCGACUAUTT against KCNK4 | inactive: -0.446 |
| AGACAUCCUAUAUUCCUUUTT against CDC14B | inactive: 0.325 |
| GCCUGAAAAUGUUGACCGATT against MEX3C | inactive: 0.0977 |
| GGUCAUGAUCAGUUCCAGATT against FMO3 | inactive: -0.0769 |
| GAGCCCAUGCGAAUGCGAATT against MATN4 | inactive: -0.262 |
| GCCUCACAGCUAUCGUGAATT against ANXA1 | inactive: -0.114 |
| GCACAACUGUGGUGGGAUATT against AGPAT6 | inactive: 0 |
| GGAUUCCAAUUAUGUCGUUTT against SI | inactive: 0 |
| GGAACAUCCUGCACCUGUATT against PC | inactive: 0.2 |
| CAUUGACUCUUGCGACAAUTT against RAB11FIP4 | inactive: 0.249 |

| Sequence | median seed-adjusted z-score |
| --- | --- |
| CUGUUGGACAAAUAUCUUATT against YWHAB | inactive: 0.579 |
| GAGUCAACAUCGUCUUUAATT against DDX39 | inactive: -0.342 |
| GGAACAAUGACAGCAAACATT against FOXP4 | inactive: 0.588 |
| GUGUACUUCAUAUUCGAAATT against PTBP2 | inactive: 0.138 |
| CCCUGGGCAUCAGACCUUATT against TNFRSF8 | inactive: 0.739 |
| GGAGGAUCGUUUAGACAGATT against TCF12 | inactive: -0.16 |
| GGGACUACUUGGAAUGAUATT against EXOSC6 | inactive: 0.354 |
| GCUGGAAACUAGAAAAGCATT against SERGEF | inactive: -0.308 |
| GGUUAUCCUUUAAUCAACATT against ZNF596 | inactive: 0.486 |
| CGCUGAAACACGUCCAUUUTT against CHAD | inactive: 0 |
| GGCCCAAGAUAACACUGAATT against CASQ1 | inactive: -0.0307 |
| GGUCGAAGCUGUGCAAGGATT against TPPP | inactive: -0.16 |
| GGAUUUACUGUGAAUGAAATT against PAAF1 | inactive: -0.422 |
| GACCAAAGCCGAACAGUUUTT against OGDH | inactive: 0.253 |
| GCUUCGAGGAGGGCAAGAATT against PRSS27 | active: 1.03 |
| GGGUGAUUGCUACACUUUUTT against NEK8 | inactive: -0.099 |
| GGACUACUGGUAUGACAUUTT against LMTK3 | inactive: 0 |
| GUGUAGCACUGACCAAGAATT against RCAN3 | inactive: 0.544 |
| AGACGACGGCGAUGAGGAATT against RALY | inactive: 0 |
| GAAGCUGAUUGAGCGCAAATT against GCN5L2 | inactive: 0.013 |
| GCAGUGUUCUUUGCGCAGATT against PAQR3 | inactive: -0.0384 |
| CACUGUUCACUGUGACUAUTT against TAF1 | inactive: -0.582 |

| Sequence | median seed-adjusted z-score |
| --- | --- |
| GGGAGAUCAUCAACACCUATT against XAB2 | inactive: 0.0628 |
| ACAGCACACCGGACUCUAATT against TMLHE | inactive: -0.241 |
| CAUGAACGAUGGGCGAGUATT against UXS1 | inactive: 0.25 |
| CGAUCAAGAUUCUAGACGATT against PCDH17 | inactive: 0.451 |
| GGAUUGGAACUGAGACCGATT against SLC25A32 | inactive: -0.299 |
| GGCUAAUCGUGAUCUAGUUTT against ACAD10 | inactive: -0.269 |
| AGACAGUAUAUAUAAUGCATT against MMP26 | inactive: 0.0881 |
| GCCUGGAUGCUAAUCAAGATT against S100A12 | inactive: 0.346 |
| GAAUCUGUCCGAAGGAUAATT against DNAJC11 | inactive: 0.148 |
| CAAACUUUCCUGGUGUUUATT against TMPRSS7 | inactive: 0.0269 |
| CGGACAGACCUGUACUUCATT against RERE | inactive: 0.129 |
| GGAUGAAAAAUACCGGUGUTT against UGT8 | inactive: 0 |
| GAAGUAACUCGAACAGUGATT against ARG1 | inactive: -0.108 |
| GGAGGUUCAUAUGCAACAATT against CYLC1 | inactive: 0.177 |
| GCCUCAGAAUUUAAUCAAATT against ALB | inactive: -0.153 |
| GCAUCUCGUUCCGAAUUAATT against RYR2 | inactive: -0.354 |
| CAAGAAAAUCAACUCCAUATT against SHOX2 | inactive: -0.238 |
| GGCCUUAGUUGGUAUGGAATT against ADAM28 | inactive: 0.211 |
| CAUCCAGUGGAAUAAGUGATT against SYNPO2 | inactive: 0 |
| GGCAUUCAGUUACUAUGGATT against SV2B | inactive: -0.43 |
| CUGCUAGAAUGGUUGUAAATT against SUCLA2 | inactive: -0.21 |
| GAAGCAAUCUGGGAAGAGATT against MOCS3 | inactive: -0.496 |

| Sequence | median seed-adjusted z-score |
| --- | --- |
| GGCUCUUCAAGGCUAUGAATT against ANXA6 | active: -1.01 |
| GGUUGCUCUUGUUACGGAUTT against CLTC | inactive: -0.0662 |
| GUGGUGACAUUGUAUCAUUTT against IMMP2L | inactive: 0.919 |
| CUGUGAUUGUCACAAGGAATT against IL16 | inactive: -0.471 |
| CACUCACACUCCUAGGUGGTT against DUX1 | inactive: -0.62 |
| GGACCAACCUCAAACGAGATT against GFI1B | inactive: 0.154 |
| CAACCUUCACCAAACACUATT against ARL2 | inactive: 0.0301 |
| CCGCAAUAGUCAACACUAUTT against ZBTB16 | inactive: 0.431 |
| CCGCAAGCUAUGUAACUUATT against AP3B1 | inactive: 0.31 |
| CAAGGGUAGUGAUAGCGUATT against TGM3 | inactive: 0.257 |
| UGAGUAUCGGAAAAAGGAATT against GABARAPL1 | inactive: 0.402 |
| CCAUAUCACCGACUCCGAATT against HIVEP3 | inactive: 0.516 |
| UGACUGCGGAUAUAACUGATT against LMAN2 | inactive: -0.0921 |
| CACUUGGAAUCACGGGUUGTT against PPM1B | inactive: 0 |
| CAAUCUAAAGAGUCAUUCATT against E2F5 | inactive: -0.628 |
| GCAAUGUGGUCAAGACGGATT against INHBE | inactive: 0.172 |
| GCCUUUAUGUCAUCCUCAATT against ZNF626 | inactive: 0.185 |
| GGAGAUACGUUGACGAAUATT against CLK4 | inactive: -0.201 |
| GGAAAAACAUUUACUCGAATT against ZNF418 | inactive: 0.804 |
| GCAACGGGAUUUUGAGUUUTT against ZC3H10 | inactive: -0.79 |

From PubChem BioAssay AID1347426 (Functional Genomics Laboratory (NCATS/FGL), 2020)
